PubChem BioAssay AID652243, Drosophila RNAi Screening Center | 2013
Assay: 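Knock-downs that decrease or increase androgen receptor reporter signal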 (primary screen). System: Drosophila S2R+ cells. Reagents: long dsRNA against Drosophila genes. Timing: 72 h (48 h, then 24 h hormone). Challenge: synthetic androgen R1881 at 10 nM for 24 h. Measurement: 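Firefly light from an androgen-responsive reporter and Renilla control light per well, raw and unnormalised, for each of two replicates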. Direction: firefly reporter light: higher = more light from androgen-responsive reporter; Renilla control light: higher = more constitutive control signal (cell number, transfection). Hit rule: 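Across duplicate plates, a knock-down whose log firefly/Renilla ratio shifted a set fold down or up from the GFP/LacZ control mean was a hit; the downward cut appears as both 1.5 and 3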. Meaning of the calls: active = hit: reporter lowered or raised; inactive = no hit.
The deposit covers about 24,000 reagents; shown is an unselected part of those with a known target gene and a result. Of all reagents, 246 (1%) got an active call. 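Plates not normalised; calls are printed but the firefly/Renilla ratio behind them is not deposited; fold cut for lowering reported inconsistently.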 Raw values vary from plate to plate and are shown uncorrected. The numbers tell different reagents against one gene apart. A plus sign joins genes that one reagent is predicted to hit. The record does not give: the amount of reagent.

The first 7 records, to show the layout:
gene | dsRNA no. | firefly reporter light, replicate 1 | firefly reporter light, replicate 2 | Renilla control light, replicate 1 | Renilla control light, replicate 2 | outcome
Cyp40 (Cyclophilin 40) | 1 | 6.99e5 | 5.79e5 | 8.60e5 | 8.01e5 | inactive
Cyp40 (Cyclophilin 40) | 2 | 2.63e5 | 3.36e5 | 6.83e5 | 6.83e5 | inactive
Ir56c (Ionotropic receptor 56c) | 1 | 56516 | 68818 | 8.34e5 | 9.94e5 | inactive
Ir56c (Ionotropic receptor 56c) | 2 | 4.69e5 | 4.75e5 | 6.99e5 | 6.73e5 | inactive
vls (valois) | 1 | 1.00e6 | 1.17e6 | 1.20e6 | 1.67e6 | inactive
vls (valois) | 2 | 3.69e5 | 5.02e5 | 1.08e6 | 8.95e5 | inactive
hdm (hold'em) | 1 | 2.65e5 | 3.09e5 | 2.50e6 | 2.83e6 | inactive

Results, from the start:
gene | dsRNA no. | firefly reporter light, replicate 1 | firefly reporter light, replicate 2 | Renilla control light, replicate 1 | Renilla control light, replicate 2 | outcome
Cyp40 (Cyclophilin 40) | 1 | 6.99e5 | 5.79e5 | 8.60e5 | 8.01e5 | inactive
Cyp40 (Cyclophilin 40) | 2 | 2.63e5 | 3.36e5 | 6.83e5 | 6.83e5 | inactive
Ir56c (Ionotropic receptor 56c) | 1 | 56516 | 68818 | 8.34e5 | 9.94e5 | inactive
Ir56c (Ionotropic receptor 56c) | 2 | 4.69e5 | 4.75e5 | 6.99e5 | 6.73e5 | inactive
vls (valois) | 1 | 1.00e6 | 1.17e6 | 1.20e6 | 1.67e6 | inactive
vls (valois) | 2 | 3.69e5 | 5.02e5 | 1.08e6 | 8.95e5 | inactive
hdm (hold'em) | 1 | 2.65e5 | 3.09e5 | 2.50e6 | 2.83e6 | inactive
sqa (spaghetti-squash activator) | 1 | 7.41e5 | 6.68e5 | 1.37e6 | 1.42e6 | inactive
sqa (spaghetti-squash activator) | 2 | 8.43e5 | 6.52e5 | 5.28e5 | 6.45e5 | inactive
sqa (spaghetti-squash activator) | 3 | – | – | – | – | inactive
sqa (spaghetti-squash activator) | 4 | – | – | – | – | inactive
can (cannonball) | 1 | 2.96e5 | 3.31e5 | 1.87e6 | 2.41e6 | inactive
CG10996 | 1 | 4.61e5 | 4.26e5 | 2.80e6 | 2.84e6 | inactive
CG32073 | 1 | 2.14e5 | 46615 | 3.54e5 | 1.47e5 | inactive
CG32073 | 2 | 2.95e5 | 3.30e5 | 3.45e6 | 3.16e6 | inactive
CG15905 | 1 | 1.09e5 | 1.34e5 | 1.18e6 | 1.46e6 | inactive
ato (atonal) | 1 | 1.17e5 | 1.54e5 | 3.38e6 | 2.97e6 | inactive
CG8607 | 1 | 88557 | 1.41e5 | 7.33e5 | 1.46e6 | inactive
CG5062 | 1 | 2.30e5 | 3.62e5 | 2.62e6 | 1.57e6 | inactive
sloth2 + sloth1 | 1 | 3.96e5 | 4.29e5 | 2.27e6 | 2.11e6 | inactive
sloth2 + sloth1 | 2 | 2.87e5 | 3.56e5 | 3.26e6 | 3.31e6 | inactive
Shmt (Serine hydroxymethyl transferase) | 1 | 1.91e5 | 2.51e5 | 2.13e6 | 1.76e6 | inactive
Gr64f (Gustatory receptor 64f) | 1 | 1.57e5 | 1.22e5 | 1.69e6 | 2.66e6 | inactive
Gr64f (Gustatory receptor 64f) | 2 | 4.50e5 | 4.10e5 | 9.16e5 | 8.02e5 | inactive
CG17287 | 1 | 54819 | 55792 | 1.10e6 | 1.10e6 | inactive
ATPsynO (ATP synthase, oligomycin sensitivity conferring protein) | 1 | 43241 | 48943 | 6.13e5 | 4.81e5 | inactive
ATPsynO (ATP synthase, oligomycin sensitivity conferring protein) | 2 | 2.11e5 | 2.31e5 | 8.05e5 | 8.01e5 | inactive
nmdyn-D7 | 1 | 1.46e5 | 1.23e5 | 2.15e6 | 2.34e6 | inactive
nmdyn-D7 | 2 | – | – | – | – | inactive
Tim17a2 | 1 | 61890 | 99889 | 1.98e6 | 1.79e6 | inactive
Tim17a2 | 2 | 2.86e5 | 1.99e5 | 6.56e5 | 4.82e5 | inactive
tnc (tenectin) | 1 | 1.76e5 | 1.65e5 | 2.50e6 | 2.20e6 | inactive
tnc (tenectin) | 2 | 2.30e5 | 3.90e5 | 1.04e6 | 9.54e5 | inactive
IFT46 (Intraflagellar transport 46) | 1 | 1.56e5 | 1.76e5 | 1.55e6 | 1.67e6 | inactive
CG15721 | 1 | 4.57e5 | 4.36e5 | 3.96e6 | 3.45e6 | inactive
L (Lobe) | 1 | 37749 | 54848 | 1.24e6 | 1.24e6 | inactive
L (Lobe) | 2 | 54641 | 45565 | 7.70e5 | 7.70e5 | inactive
L (Lobe) | 3 | 4.58e5 | 3.35e5 | 1.56e6 | 1.88e6 | inactive
Smug | 1 | 1.17e5 | 1.35e5 | 1.65e6 | 2.49e6 | inactive
snoRNA:Psi28S-291 (ncRNA) | 1 | 1.05e6 | 8.83e5 | 1.63e6 | 1.80e6 | inactive
CG17122 | 1 | 2.04e5 | 2.15e5 | 1.90e6 | 2.78e6 | inactive
CG17122 | 2 | 4.85e5 | 3.80e5 | 1.38e6 | 1.47e6 | inactive
CG34408 | 1 | 1.93e5 | 1.28e5 | 1.06e6 | 1.01e6 | inactive
CG34408 | 2 | 7.38e5 | 8.28e5 | 1.28e6 | 1.44e6 | inactive
CG34408 | 3 | 4.15e5 | 4.75e5 | 5.05e5 | 5.56e5 | inactive
CG34408 | 4 | 4.72e5 | 4.29e5 | 1.30e6 | 1.08e6 | inactive
dx (deltex) | 1 | 87312 | 86924 | 1.73e6 | 2.16e6 | inactive
dx (deltex) | 2 | 4.64e5 | 3.13e5 | 3.68e5 | 4.32e5 | inactive
CG7126 | 1 | 76040 | 90103 | 8.76e5 | 1.13e6 | inactive
CG7126 | 2 | 3.92e5 | 3.62e5 | 1.41e6 | 1.38e6 | inactive
CG7126 | 3 | 4.14e5 | 4.11e5 | 1.24e6 | 1.51e6 | inactive
CG17211 | 1 | 1.95e5 | 2.47e5 | 1.03e6 | 1.35e6 | inactive
CG10492 | 1 | 1.04e6 | 8.53e5 | 8.86e5 | 5.68e5 | inactive
CG12567 | 1 | 7.10e5 | 6.99e5 | 1.05e6 | 1.43e6 | inactive
AOX2 (Aldehyde oxidase 2) | 1 | 1.09e5 | 1.24e5 | 1.58e6 | 1.82e6 | inactive
CG14400 | 1 | 1.01e5 | 1.24e5 | 1.06e6 | 9.18e5 | inactive
nero | 1 | 70942 | 47807 | 4.71e5 | 3.36e5 | inactive
CG7914 | 1 | 1.45e5 | 75704 | 4.63e5 | 2.36e5 | inactive
CG7914 | 2 | 4.03e5 | 4.93e5 | 1.19e6 | 1.24e6 | inactive
